# Reference: patent US10730840B2, “Substituted tetrahydroisoquinoline ethylbenzamide anti-cancer agents” (Florida A&M University, priority 2017, dated 2020)
# Read-outs that look alike come from different tables or passages of the source.
# System: Ishikawa (endometrial) cancer cell line
# Assay: CellTiter-Glo antiproliferative activity, Ishikawa cell line
# Format: cell-based
# Details: Homo sapiens, in the presence of 10 nM estradiol
# From the text: Numerous substituted THIQs were systematically synthesized employing molecular design and structure activity relationship studies (Suresh et al., (2014) Lett. Drug Design & Discov. 11: 428-436; Gangapuram et al., (2014) J. Cancer Sci. Ther. 6: 161-169). The compounds' cytotoxic effects on MCF-7 (estrogen receptor positive breast cancer) cell lines, MDA-MB-231 (estrogen receptor negative breast cancer) cell lines and Ishikawa cell lines using CellTiter-Glo (CTG) luminescent cell viability essay were studied. The tests were done on different concentrations of the compounds ranging from 0.01 to 100,000 nM on 5000 MCF-7 cells/well, on 5000 MDA-MB-231 cells/well and on 5000 Ishikawa cells/well. Drug exposed cells were incubated at 37° C. for three days followed by CTG assay. Then IC50 values were generated from Graph Pad Prism 4. […]
# The antiproliferative activities of substituted tetrahydroisoquinolines 2a-2m, 3a-3l and 4a-4f were evaluated according to the procedure reported previously (Crouch et al., (1993) J. Immunol. Methods 160: 81-88).
# Human MCF-7 and MDA-MB-231 breast cancer cell lines were purchased from the NCI. The human Ishikawa endometrial cancer cell line was purchased from Sigma Aldrich. […]
# The amount of ATP is determined using a system based on luciferase and D-luciferin resulting in light generation.
compound,measurement,setting,value
"CC/C(=C(\c1ccccc1)c1ccc(OCCN(C)C)cc1)c1ccccc1 [Tamoxifen, reference compound]",IC50,"72 h exposure, read-out: IC50 against Ishikawa cell line",7.87 µg/mL
same,IC50,"Table 1, 72 h exposure, read-out: IC50 Ishikawa",7.87 µg/mL
